This note sets out measurements from PubChem BioAssay AID1347426 (Functional Genomics Laboratory (NCATS/FGL), 2020).

About 1,400 (4.5%) of roughly 31,000 sequences were called active.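 The calls were made as follows: active = median seed-adjusted z-score above 1 or below -1; inactive = the rest.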 This is one part of the list.

This experiment is described as follows: Novel Modifiers of Survival Motor Neuron (SMN) Protein: Gene Identification via Genome-wide siRNA Screen.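 Also: luminescence tracks full-length SMN protein made from the SMN2 reporter.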 The note with it: HEK293T SMN2-luciferase reporter, siRNA knockdown, 72 h; actives lie on both sides. In short, it runs like this: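 HEK293T cells stably expressing an SMN2 splicing/cDNA-luciferase reporter were reverse-transfected with a druggable-genome siRNA library and read by luminescence at 72 hours; hits defined by MAD score above 1.0 or below -1.0.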
Background: In a reporter assay the amount or activity of a reporter protein is the signal.
With GGAGUUCCAUAGCUGUCAATT against ADRA1B, the median seed-adjusted z-score was inactive: -0.472.
As for GGAUGGAGGACUAUGACUATT against BCAR1, the figure is inactive: -0.469.
As for GGAACUCAUUGACCGCUAUTT against PLCD4, the median seed-adjusted z-score was inactive: -0.4.
As for GCAUCAUCGGUACCCAGUUTT against MPO, the figure is inactive: -0.223; as for GAGUUUAAUCUGAUUGAUATT against MOBKL1B, inactive: 0.31.
As for UCAACACCCAGGAAGCAUATT against TNK1, the figure is inactive: -0.727.
With CUUAUCCACUCAUCACUAATT against RBM25, the median seed-adjusted z-score is inactive: -0.265.
Regarding GGUGGGUGAUUAUCUCUAUTT against KCNG3, the median seed-adjusted z-score was inactive: 0.0832.
As for CCAAUAUUGCAGACUUGGATT against MBOAT7, the figure is inactive: 0.314.
As for GGAAGCUAUUGCAGACUUATT against PRDM13, the figure is inactive: 0; as for CCUCAUGUAUACUUACUUATT against HSD17B2, inactive: 0.521.
In the case of CCCUGUUGCUAUCAAGUAUTT against AGPAT6, the median seed-adjusted z-score is inactive: 0.
As for UCAAGAUGCUCAAAGACAATT against FGFR4, the median seed-adjusted z-score was inactive: 0.0825.
With AUGUCACGCUGGUGCCCUATT against IFI30, the median seed-adjusted z-score is inactive: 0.401.
With UCCCUUACAUGUCACCAAATT against ZMIZ2, the median seed-adjusted z-score was inactive: -0.27.
As to GGCUUACUAUGCUUUUAAATT against CIB3, the median seed-adjusted z-score is inactive: 0.234.
As for UGGUCAAGGCAGAACAGAATT against TNNT1, the figure is inactive: 0; as for CCUACUCAUUUGACAUAGATT against ATP12A, inactive: -0.0941; as for GAAGAGCUUUGAGAAUGAUTT against INPPL1, inactive: 0.199.
Take AAAGAAUGCGUGCUUUUAATT against RABGGTA: the median seed-adjusted z-score is inactive: -0.0601.
As for GGACAGUAGUUUAACUGAUTT against NEK1, the figure is inactive: 0.296; as for GCAUCUACAUGACCAACCUTT against GPR35, active: -1.46; as for CAACAUAUCUUGCUACGAATT against IFNGR2, inactive: 0.148.
Consider GUGAUUCACAGAGAUAUUATT against AURKC, for which the median seed-adjusted z-score is inactive: -0.0275.
Take GGUUAUAGCUUCAAGGUGATT against ERCC3: the median seed-adjusted z-score was inactive: 0.155.
Turning to GAACUAUGACAAGACAAAATT against 4-Mar, the median seed-adjusted z-score was inactive: 0.168.
As for GGAACUUUCUGAAUUACGUTT against SLC7A8, the figure is inactive: -0.134; as for GACUUUGACCGACUCCGCATT against EPN1, inactive: 0.
As for GCUAAGAGGUCUGUCCUAATT against CACNB4, the figure is inactive: -0.223.
Consider GGGUCAUCUAUAUCCGCAATT against GPR132, for which the median seed-adjusted z-score was inactive: 0.
As for GGUUCAGUAUAGACGACGATT against FAT3, the figure is inactive: 0.246; as for GAGUAAACCUCCAAAGAAATT against PDE6H, inactive: -0.0647.
As for GAGUGUACCUGGAAUGUCUTT against ARNTL2, the figure is inactive: 0.102; as for CCACUAGCACAUUCCGCAATT against RBP2, inactive: 0.0132; as for CCACAGACCGGUAUAUUCATT against MTA2, inactive: 0.947.
Regarding GGAUCAACUGGACAGCAAATT against CDC6, the median seed-adjusted z-score was inactive: 0.0196.
In the case of GAAAGAUUGUACCAGUUGATT against CMPK1, the median seed-adjusted z-score was inactive: -0.363.
GGAGAAGAGUCAGAACAAATT against PSTPIP1: the median seed-adjusted z-score was inactive: -0.342.
As for CCGUCAUUGUCAACCGGAATT against SLC4A5, the figure is active: 1.3.
As to CCUUCAGUCGAUCCACUUATT against ZNF627, the median seed-adjusted z-score was inactive: 0.204.
Take GGCCUACUAUUCAACGGUATT against PANK4: the median seed-adjusted z-score was inactive: 0.00068.
As for GAUGUAUUCAGAUACGUGATT against ARHGAP5, the figure is inactive: -0.359; as for CCUUUGACACCAACAGCGATT against HPCA, inactive: 0.12; as for CAACUUCCACUGUUUCCGATT against RRAGC, inactive: -0.557.
Regarding GGAGGUCUCAAGUUCAACATT against LENG8, the median seed-adjusted z-score is inactive: -0.00539.
For CGAAUCAUAUGAUCUCCUATT against SLC30A5, the median seed-adjusted z-score was inactive: 0.401.
As for CACCGGUGAGAUUCCCUAUTT against ZNF546, the figure is inactive: 0.497; as for CGAAGACUUUUCAAUCCAATT against BANK1, inactive: 0.962.
Regarding GGAUGGUCUCAAUCAGACATT against LARP4, the median seed-adjusted z-score was inactive: -0.701.
As for CCUUCAGUCUUAACUCCAATT against ZKSCAN1, the figure is inactive: 0.229; as for GCCGGACAAGGAGAUCGAATT against RBP5, inactive: -0.748.
Turning to GGCUAAAGGAAAAUCUAUATT against AADAC, the median seed-adjusted z-score was inactive: 0.0318.
In the case of GUGAUACAGUGGAAGUACATT against SLC30A1, the median seed-adjusted z-score is inactive: 0.314.
As for CCACCGACACUUUUAACUATT against CPA1, the figure is inactive: -0.187.
With GACAGAAGAGUAACCGGAATT against SIGLEC7, the median seed-adjusted z-score was inactive: -0.296.
In the case of GGCUCAGUAUGACGAUGUUTT against KRT85, the median seed-adjusted z-score was inactive: -0.126.
Take CGGACUUCUUACUCGCAGATT against ATMIN: the median seed-adjusted z-score is inactive: -0.55.
Regarding CGAAGAUGUCUUUACGGAATT against SPTB, the median seed-adjusted z-score is inactive: 0.153.
As for GGAGUAAACAACAUACUGATT against SPZ1, the median seed-adjusted z-score was inactive: 0.535.
Regarding AGAACUUCAUCAUUCCAAATT against PPP2R4, the median seed-adjusted z-score was inactive: 0.318.
As for GCGACGAUGAGGAAGGUUATT against EEF2K, the figure is inactive: 0.
As for CCACGCAGGUGUUCUUCAATT against ATP5D, the figure is inactive: 0.
As for GAAUAGAUACGCGAAUGUATT against PTPRD, the figure is inactive: 0.425; as for ACACGUUCAUGGACCUGAUTT against OTUB1, inactive: 0.598.
Turning to GACCACCUAGUGAUAUAUATT against NUDT9, the median seed-adjusted z-score was inactive: 0.277.
On to CGCUGUUGGAUUUAAUGGATT against EPN2, for which the median seed-adjusted z-score is inactive: -0.00173.
As for GAGAGCAUGUGAUUCGUUATT against SRPX2, the figure is inactive: 0.101; as for GACUCCUUGCUGAAUCUGATT against CLDN1, inactive: 0.307.
CCGAAGUUCUUAUCUUGUUTT against ZNF434: the median seed-adjusted z-score was inactive: 0.545.
As for CAUAGUCACAUGAUUAAUATT against POSTN, the figure is inactive: -0.45; as for CGGCACUUCCUGACCCUAUTT against AANAT, inactive: -0.168; as for GCUCCUUGGUACUUAGAUUTT against HEXB, inactive: 0.0101.
As for GCUUCAAGGUCAACUCAAATT against ACSBG2, the figure is inactive: 0.027; as for GAGGAAUUGUUGAUAAAGATT against MAGI2, inactive: -0.23; as for GCUCCUUGCAAGAAGUUUATT against PSMA5, inactive: -0.824.
Regarding GAACCUUGGUUAUUACGGUTT against SETBP1, the median seed-adjusted z-score is inactive: 0.0232.
As to GGAUUUUAAACGAUACAAATT against ASPN, the median seed-adjusted z-score was inactive: -0.0432.
As for AGUGGGCGAAGGUACAAUATT against CARD17, the figure is inactive: 0.301; as for CGUUUAUUGUAAGUUGAUATT against CDK2AP1, inactive: 0.168; as for CCAGAGUUCUGUGAUCCCUTT against PNPO, inactive: -0.0845.
For CGGUGUCUCUGGAUCAGUATT against RASGRP2, the median seed-adjusted z-score was inactive: -0.00329.
As for GAAGGAUCUCAAACUCGAATT against NECAB1, the figure is inactive: 0.0268.
As for CAUGGACUCUGUUCGCUCATT against TUBB, the figure is inactive: -0.307; as for CCUCCUUGUUAACAGCUUUTT against BST1, inactive: -0.28; as for GGUUAUGCUUGGAUGCAGATT against TFDP2, inactive: 0.85.
As for CCGAAUCAUUAUGCACCAATT against OCLN, the figure is inactive: 0.232; as for GGAGCAAGGUGAUGUCACATT against MVK, inactive: -0.192.
For CGGAGACCGUACGAAAGUATT against A2M, the median seed-adjusted z-score is active: -1.96.
As for CCGUGAAUAUUAUAAGGGATT against ZNF214, the figure is inactive: 0.467; as for CUAUAUCGGUGCUCCAAAATT against IFNAR1, inactive: 0.0327; as for CAUCAGUCAUAAUGCCUAUTT against MAP1D, inactive: 0.155.
Take GACUAACAUUUAUCUAGAUTT against PI4KA: the median seed-adjusted z-score was inactive: 0.
Regarding GCUCGUGCCUUAGUUCGAATT against ABCB5, the median seed-adjusted z-score is inactive: 0.495.
As for CCUCUAACGUACCAUCUAATT against OLAH, the figure is inactive: -0.44; as for CAGUCAAGCUGAUCCGCUATT against PKD2L1, inactive: 0.445.
For the sequence CAACAAGGGCAACAAGAAATT against CEL, the median seed-adjusted z-score is inactive: 0.
For the sequence AGCUCUUAUUAGCUGCAUATT against MS4A7, the median seed-adjusted z-score is inactive: 0.0794.
Consider CGAUAUCAGGAGAGGUUCATT against SPRYD3, for which the median seed-adjusted z-score is inactive: 0.207.
In the case of GCUGCUUGCAGUAACCUUATT against COL1A2, the median seed-adjusted z-score was inactive: 0.481.
As for AGCUGGAUAAGGUGAAUUUTT against IKBKE, the figure is inactive: 0.122; as for CCCUCUAACUGCUCGGAUATT against DNASE2, active: -1.23.
With CCUGCAGUGCAGUACCUAUTT against GPS2, the median seed-adjusted z-score was inactive: 0.
Take CCUCUAUACUGAUAACGAUTT against GABRB3: the median seed-adjusted z-score is inactive: 0.0757.
As for CAGUCGUCAUAAUACUGCATT against SMC4, the figure is inactive: 0.646; as for GCUGCCGCCCAAUGUCAUATT against CITED2, inactive: -0.0248.
With GGACUUUUUCAACGAGCAATT against NLGN1, the median seed-adjusted z-score was inactive: 0.187.
As for GCUCAUUACUUAUUAUACATT against ZNF568, the figure is inactive: 0.501; as for GGAAAGGAGACAUGCGUAATT against HMOX2, inactive: 0.
